Source: PubChem BioAssay AID1508588 (Peter MacCallum Cancer Centre, 2020)

- Screen: 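Genome-wide search for knock-downs that heighten vemurafenib action in melanoma cells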 (primary screen)
- Cells: human WM266.4 melanoma cells (BRAF V600 mutant)
- Knock-down reagent: siRNA pool against human genes, 40 nM
- Time to read-out: 96 h from transfection to read-out
- Challenge: vemurafenib 300 nM (about IC25), added 48 h after transfection, for 48 h; comparison arm got DMSO vehicle only
- Measured: 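Cell gain (DAPI nuclei at end minus before drug, mean of two replicates) and medium lactate by absorbance per cell, both as ratio to non-targeting siRNA, also grouped into fold-change classes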
- Direction: cell gain with vemurafenib: higher = more cell gain than with non-targeting siRNA; lactate per cell with vemurafenib: higher = more lactate made per cell
- Call rule: 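a knock-down counts as enhancing when its fold-change classes with vehicle and with vemurafenib, taken together, show a stronger drug effect on cell gain or lactate per cell; exact class pairs not stated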
- Meaning of the calls: active = enhances vemurafenib effect; inactive = no enhancement seen
This is a random part of about 18,000 deposited reagents. Of all reagents, 790 (4.4%) got an active call. 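Calls rest on a combination of fold-change classes in drug and vehicle arms, not all shown here.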 A number with no mark means an inactive call. Reagents against one gene are numbered here.

| target gene | reagent no. | cell gain with vemurafenib | lactate per cell with vemurafenib |
| --- | --- | --- | --- |
| PRKD2 | 1 | 1.07 | 1.41 |
| PAG1 | 1 | 0.25 | 0.84 |
| TTC8 | 1 | 0.95 | 1.1 |
| ANKRD34A | 1 | 1.07 | 0.46 |
| SEC13 | 1 | 0.15 | 1.04 |
| LEFTY2 | 1 | 0.7 | 1.44 |
| POGLUT3 | 1 | 0.73 | 0.58 |
| HLA-C | 1 | 0.82 | 0.36 |
| NAA40 | 1 | 0.13 (active) | 0.48 |
| PPIL2 | 1 | 1.04 | 0.56 |
| THADA | 1 | 0.92 | 0.9 |
| PDCD2 | 1 | -0.04 | 0.84 |
| PKP1 | 1 | -0.01 | 1.48 |
| SZT2 | 1 | 1.1 | 1.07 |
| SZT2 | 2 | 0.13 (active) | 0.54 |
| PSEN2 | 1 | 0.25 | 0.57 |
| FAM181A | 1 | 0.06 | 1.25 |
| GFRA3 | 1 | 0.46 | 0.94 |
| PIK3C2B | 1 | 0.29 | 0.78 |
| KRTAP5-9 | 1 | 0.94 | 0.93 |
| REG1A | 1 | 0.69 | 1.17 |
| GDAP1 | 1 | 0.99 | 0.89 |
| ACOT7 | 1 | 0.56 | 0.7 |
| UBTF | 1 | 0.8 | 1.2 |
| KLF12 | 1 | 1.03 | 0.89 |
| TAOK3 | 1 | 0.42 | 0.83 |
| MR1 | 1 | 0.86 | 0.82 |
| SOCS1 | 1 | 0.26 | 1.44 |
| VSTM2A | 1 | 0.63 | 0.92 |
| CCR4 | 1 | 0.88 | 0.56 |
| ADCY10 | 1 | 0.87 | 0.86 |
| FCHO2 | 1 | 0.59 | 1.6 |
| NDRG3 | 1 | 1.16 | 0.2 |
| APH1A | 1 | 0.8 | 0.68 |
| OR14K1 | 1 | 0.9 | 0.33 |
| ARFGEF1 | 1 | 0.56 | 0.77 |
| NKD2 | 1 | 0.45 | 1.33 |
| CENPQ | 1 | 1.02 (active) | 0.18 |
| FGF8 | 1 | 0.79 | 0.62 |
| MSMB | 1 | 0.96 | 0.96 |
| SEL1L | 1 | 0.64 | 0.77 |
| PHOSPHO2 | 1 | 0.78 | 0.8 |
| TMEM163 | 1 | 0.46 | 1.36 |
| SDHAF2 | 1 | 0.3 | 1.9 |
| ASCL3 | 1 | 0.35 | 1.5 |
| DRD5 | 1 | 0.31 | 2.83 |
| KIF1B | 1 | 0.45 (active) | 0.55 |
| STK39 | 1 | 0.19 | 1.49 |
| RPS7 | 1 | -0.04 | 1.11 |
| MUSK | 1 | 0.3 | 0.86 |
| MAN1A2 | 1 | 1.01 | 0.44 |
| ASH2L | 1 | 0.36 | 0.48 |
| LRRTM1 | 1 | 0.07 | 0.92 |
| ZGRF1 | 1 | 0.23 | 1.64 |
| ZGRF1 | 2 | 0.31 | 1.14 |
| EPHB6 | 1 | 0.67 | 0.8 |
| SH3TC1 | 1 | 0.69 | 1.08 |
| EVC | 1 | 1.03 | 0.79 |
| OR52I2 | 1 | 0.56 | 0.49 |
| OR10A5 | 1 | 0.03 | 0.96 |
| HUS1 | 1 | 0.75 | 1.26 |
| MYMK | 1 | 0.73 | 0.84 |
| IRS1 | 1 | 0.02 | 3.38 |
| FBXO8 | 1 | 0.88 | 1.18 |
| TBC1D10B | 1 | 0.65 | 0.6 |
| ZNF442 | 1 | 0.43 | 1.09 |
| CNGA4 | 1 | 0.43 | 0.97 |
| AGBL3 | 1 | 0.46 | 2.27 |
| OIP5 | 1 | 0.68 | 1.38 |
| TLR1 | 1 | 0.69 | 2.18 |
| FGD6 | 1 | 0.62 | 1.04 |
| F8 | 1 | 0.34 | 0.78 |
| MARK4 | 1 | 0.18 | 1.08 |
| ABCA5 | 1 | 0.75 | 0.83 |
| ZNF589 | 1 | 0.54 | 0.37 |
| CREBZF | 1 | 0.48 | 1.64 |
| BRD10 | 1 | 0.51 | 1.34 |
| PKN1 | 1 | 0.78 | 1.21 |
| CTSL | 1 | 0.78 | 0.66 |
| IRX5 | 1 | 1.15 | 0.38 |
| SPSB1 | 1 | 0.85 | 0.49 |
| GUCY1A1 | 1 | 0.43 | 1.55 |
| NRN1 | 1 | 0.28 | 1.74 |
| BFAR | 1 | 0.06 | 2.87 |

Targets listed so far whose target name starts with R or r (2):
| target gene | reagent no. | cell gain with vemurafenib | lactate per cell with vemurafenib |
| --- | --- | --- | --- |
| REG1A | 1 | 0.69 | 1.17 |
| RPS7 | 1 | -0.04 | 1.11 |
